{"source": "PubChem BioAssay AID652272 (Drosophila RNAi Screening Center, 2013)", "assay": "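Genome-wide knock-down search for components of Hedgehog signalling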 (primary screen)", "system": "Drosophila clone 8 (Cl8) cells", "knock-down reagent": "long dsRNA against Drosophila genes", "detection": "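Firefly light from a Hedgehog-responsive ptc promoter reporter and Renilla reference light, both read on a plate reader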", "scale": "firefly Hh reporter signal: higher = more ptc reporter light; Renilla reference signal: higher = more Renilla control light", "hit rule": "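Called a hit if the two-replicate mean z-score lies below -2 or above +3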", "calls": "active = hit: reporter lowered or raised; inactive = not a hit", "note": "The deposit covers about 21,000 reagents; this is an unselected part of those with a known target gene and a result. Over the whole deposit, 503 (2.4%) were called active. 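Raw plate light values, not normalised; calls rest on replicate z-scores that were not deposited; hits include reporter decreases as well as increases.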 A number with no mark means an inactive call. Reagents against one gene are numbered here. Not given: the amount of reagent, the time to read-out."}
{"gene": "side-VI", "reagent": 1, "firefly Hh reporter signal, replicate 1": 2.91e5, "Renilla reference signal, replicate 1": 5553}
{"gene": "side-VI", "reagent": 2, "firefly Hh reporter signal, replicate 1": 3.57e5, "Renilla reference signal, replicate 1": 6716}
{"gene": "side-VI", "reagent": 3, "firefly Hh reporter signal, replicate 1": 87893, "firefly Hh reporter signal, replicate 2": 1.24e5, "Renilla reference signal, replicate 1": 2848, "Renilla reference signal, replicate 2": 3409}
{"gene": "side-VI", "reagent": 4, "firefly Hh reporter signal, replicate 1": 73610, "firefly Hh reporter signal, replicate 2": 87624, "Renilla reference signal, replicate 1": 2784, "Renilla reference signal, replicate 2": 2369}
{"gene": "CG17683", "reagent": 1, "firefly Hh reporter signal, replicate 1": 64292, "firefly Hh reporter signal, replicate 2": 2.36e5, "Renilla reference signal, replicate 1": 1948, "Renilla reference signal, replicate 2": 9681}
{"gene": "Obsc", "reagent": 1, "firefly Hh reporter signal, replicate 1": 6.63e5, "firefly Hh reporter signal, replicate 2": 1.04e5, "Renilla reference signal, replicate 1": 4397, "Renilla reference signal, replicate 2": 4397}
{"gene": "Obsc", "reagent": 2, "firefly Hh reporter signal, replicate 1": 75639, "firefly Hh reporter signal, replicate 2": 92378, "Renilla reference signal, replicate 1": 2931, "Renilla reference signal, replicate 2": 3543}
{"gene": "Obsc", "reagent": 3, "firefly Hh reporter signal, replicate 1": 92050, "firefly Hh reporter signal, replicate 2": 29776, "Renilla reference signal, replicate 1": 2632, "Renilla reference signal, replicate 2": 3628}
{"gene": "Obsc", "reagent": 4, "firefly Hh reporter signal, replicate 1": 53616, "firefly Hh reporter signal, replicate 2": 68486, "Renilla reference signal, replicate 1": 1297, "Renilla reference signal, replicate 2": 4813}
{"gene": "Bem46", "reagent": 1, "firefly Hh reporter signal, replicate 1": 81285, "firefly Hh reporter signal, replicate 2": 63450, "Renilla reference signal, replicate 1": 1209, "Renilla reference signal, replicate 2": 4811}
{"gene": "CG14180 (retired record)", "reagent": 1, "firefly Hh reporter signal, replicate 1": "33819 (active)", "firefly Hh reporter signal, replicate 2": 26176, "firefly Hh reporter signal, replicate 3": 23805, "Renilla reference signal, replicate 1": 5379, "Renilla reference signal, replicate 2": 2299}
{"gene": "Cnx14D", "reagent": 1, "firefly Hh reporter signal, replicate 1": 1.06e5, "firefly Hh reporter signal, replicate 2": 2.98e5, "Renilla reference signal, replicate 1": 2280, "Renilla reference signal, replicate 2": 11376}
{"gene": "Had1", "reagent": 1, "firefly Hh reporter signal, replicate 1": 71357, "firefly Hh reporter signal, replicate 2": 1.76e5, "Renilla reference signal, replicate 1": 2582, "Renilla reference signal, replicate 2": 7255}
{"gene": "ash1", "reagent": 1, "firefly Hh reporter signal, replicate 1": 99268, "firefly Hh reporter signal, replicate 2": 66262, "Renilla reference signal, replicate 1": 3494, "Renilla reference signal, replicate 2": 2113}

Already shown: an excerpt of the list.
{"gene": "Had1", "reagent": 1, "firefly Hh reporter signal, replicate 1": 71357, "firefly Hh reporter signal, replicate 2": 1.76e5, "Renilla reference signal, replicate 1": 2582, "Renilla reference signal, replicate 2": 7255}
{"gene": "ash1", "reagent": 1, "firefly Hh reporter signal, replicate 1": 99268, "firefly Hh reporter signal, replicate 2": 66262, "Renilla reference signal, replicate 1": 3494, "Renilla reference signal, replicate 2": 2113}
